In PMC10324619:
Results are given in words; binding and its absence hold for the method and conditions named. For some assays here: In cells and extracts the contact can be indirect. Some entries that bind do so weakly or less than the wild type. For some assays here: Tags and fused reporters may be left off the sequences shown.

T1: biotinylated purified human beta defensin-3 (HBD3) protein (human) (UniProt P81534)
T1 sequence (chain, biotin (TFPA-PEG3-Biotin; sites not stated)): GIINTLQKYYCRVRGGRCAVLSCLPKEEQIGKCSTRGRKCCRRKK


Assays:
[1] = target: T1, biotinylated purified human beta defensin-3 (HBD3) protein (human); test: pull-down; chilled A549 cells expressing FLAG-LRP5 incubated with biotinylated HBD3 for 4 h at 4°C; lysed in PBS with 1% Triton X-100; lysate precipitated with NeutrAvidin-agarose 16 h at 4°C; western blot with anti-FLAG; only the target purified
[2] = target: T1, biotinylated purified human beta defensin-3 (HBD3) protein (human); test: pull-down; cell-free: biotinylated HBD3 bound to avidin-agarose (16 h at 4°C), washed, incubated with purified truncated LRP5 (16 h at 4°C); western blot with LRP5 antibody; non-biotinylated HBD3 as control; both purified

binding [1] | binding [2] | Molecule
binds |  | FLAG-tagged LDL receptor-related protein-5 (LRP5) (from UniProt O75197 32-1615)
 | binds | purified truncated recombinant LRP5 protein (aa769-aa1016) with Fc tag (Fc fusion, UniProt O75197 769-1016) DPTKGYIYWTEWGGKPRIVRAFMDGTNCMTLVDKVGRANDLTIDYADQRLYWTDLDTNMIESSNMLGQERVVIADDLPHPFGLTQYSDYIYWTDWNLHSIERADKTSGRNRTLIQGHLDFVMDILVFHSSRQDGLNDCMHNNGQCGQLCLAIPGGHRCGCASHYTLDPSSRNCSPPTTFLLFSQKSAISRMIPDDQHSPDLILPLHGLRNVKAIDYDPLDKFIYWVDGRQNIKRAKDDGTQPFVLTSL
